Test results published in paper PMC8274477.
Results are given in words; binding and its absence hold for the method and conditions named. Some entries that bind do so weakly or less than the wild type.

Sequences of proteins named here, by UniProt entry; tags and fusion partners are left off.
UniProt Q92879: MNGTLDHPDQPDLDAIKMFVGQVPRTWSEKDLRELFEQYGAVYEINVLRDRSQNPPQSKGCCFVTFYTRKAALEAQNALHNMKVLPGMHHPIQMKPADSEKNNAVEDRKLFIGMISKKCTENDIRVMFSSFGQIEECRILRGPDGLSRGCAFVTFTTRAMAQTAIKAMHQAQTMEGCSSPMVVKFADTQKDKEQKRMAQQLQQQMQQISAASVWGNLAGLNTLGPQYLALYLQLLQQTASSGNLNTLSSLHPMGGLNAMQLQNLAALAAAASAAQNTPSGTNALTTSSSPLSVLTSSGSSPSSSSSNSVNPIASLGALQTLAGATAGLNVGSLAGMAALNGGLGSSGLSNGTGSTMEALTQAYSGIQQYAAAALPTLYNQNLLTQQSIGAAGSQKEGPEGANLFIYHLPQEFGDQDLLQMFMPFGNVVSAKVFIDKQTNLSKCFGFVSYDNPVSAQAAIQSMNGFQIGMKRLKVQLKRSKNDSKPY
UniProt Q9HCP0: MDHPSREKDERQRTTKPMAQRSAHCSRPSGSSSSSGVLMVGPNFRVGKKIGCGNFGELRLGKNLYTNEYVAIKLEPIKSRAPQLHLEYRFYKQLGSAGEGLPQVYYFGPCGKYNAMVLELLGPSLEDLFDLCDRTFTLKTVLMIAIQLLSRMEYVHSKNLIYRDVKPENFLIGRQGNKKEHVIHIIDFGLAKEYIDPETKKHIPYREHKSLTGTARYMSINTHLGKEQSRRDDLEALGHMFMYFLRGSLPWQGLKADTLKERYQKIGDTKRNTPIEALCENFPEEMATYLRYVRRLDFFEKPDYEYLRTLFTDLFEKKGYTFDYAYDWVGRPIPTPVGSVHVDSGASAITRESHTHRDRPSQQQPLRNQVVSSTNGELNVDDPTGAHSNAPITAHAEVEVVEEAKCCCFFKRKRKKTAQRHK

Legend:
Experiment in all cases: peptide or protein array; HuProt human proteome microarray; 5 ug/5 ml biotin-labelled LUBAC or OTULIN in solution, 1 h at room temperature; Cy5-streptavidin, scanned at 635 nm; BSA as negative control; hits: Z-score >= 3 and I_(Mean_Ratio) >= 1.4; both purified
CRYZ (human) = molecular target: T1, CRYZ (human) (UniProt Q08257)
T1 sequence: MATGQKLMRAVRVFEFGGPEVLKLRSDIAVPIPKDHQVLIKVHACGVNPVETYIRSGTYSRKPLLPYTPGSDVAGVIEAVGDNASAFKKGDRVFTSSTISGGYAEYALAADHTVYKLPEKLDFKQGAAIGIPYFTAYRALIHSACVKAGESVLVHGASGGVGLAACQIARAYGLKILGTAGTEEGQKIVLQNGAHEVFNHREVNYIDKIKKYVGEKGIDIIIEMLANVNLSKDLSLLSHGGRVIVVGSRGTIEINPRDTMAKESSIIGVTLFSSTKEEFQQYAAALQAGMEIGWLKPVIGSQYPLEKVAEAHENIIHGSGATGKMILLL

ADAMTSL4 (human) = molecular target: T2, ADAMTSL4 (human) (UniProt Q6UY14)
T2 sequence: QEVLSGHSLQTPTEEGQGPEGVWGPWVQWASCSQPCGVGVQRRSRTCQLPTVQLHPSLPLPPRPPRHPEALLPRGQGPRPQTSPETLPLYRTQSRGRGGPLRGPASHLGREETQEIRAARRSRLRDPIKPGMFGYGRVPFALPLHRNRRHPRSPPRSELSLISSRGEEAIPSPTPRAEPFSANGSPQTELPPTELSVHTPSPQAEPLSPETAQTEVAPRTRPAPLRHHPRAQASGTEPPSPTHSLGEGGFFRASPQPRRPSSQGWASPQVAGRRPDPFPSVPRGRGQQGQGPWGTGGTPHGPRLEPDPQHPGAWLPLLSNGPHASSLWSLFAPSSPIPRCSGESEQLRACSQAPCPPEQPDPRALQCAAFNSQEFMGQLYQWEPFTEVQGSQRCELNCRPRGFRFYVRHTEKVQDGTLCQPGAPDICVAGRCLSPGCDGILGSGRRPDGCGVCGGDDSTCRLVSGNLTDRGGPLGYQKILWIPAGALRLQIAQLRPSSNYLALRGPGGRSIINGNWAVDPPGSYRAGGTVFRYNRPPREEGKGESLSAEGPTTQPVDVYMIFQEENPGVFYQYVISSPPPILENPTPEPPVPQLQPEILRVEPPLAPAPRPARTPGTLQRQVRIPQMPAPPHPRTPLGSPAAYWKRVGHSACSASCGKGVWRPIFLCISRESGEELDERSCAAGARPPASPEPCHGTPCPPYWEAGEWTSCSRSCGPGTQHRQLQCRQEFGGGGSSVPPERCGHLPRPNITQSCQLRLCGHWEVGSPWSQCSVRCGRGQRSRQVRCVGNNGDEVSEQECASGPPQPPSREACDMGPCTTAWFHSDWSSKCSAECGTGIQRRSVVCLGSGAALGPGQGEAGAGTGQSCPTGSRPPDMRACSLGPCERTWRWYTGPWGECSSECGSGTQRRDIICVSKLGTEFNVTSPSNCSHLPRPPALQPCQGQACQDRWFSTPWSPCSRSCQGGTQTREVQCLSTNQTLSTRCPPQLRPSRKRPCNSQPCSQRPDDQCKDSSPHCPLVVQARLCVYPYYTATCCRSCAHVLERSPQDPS

AKR1D1 (human) = molecular target: T3, AKR1D1 (human) (UniProt P51857)
T3 sequence: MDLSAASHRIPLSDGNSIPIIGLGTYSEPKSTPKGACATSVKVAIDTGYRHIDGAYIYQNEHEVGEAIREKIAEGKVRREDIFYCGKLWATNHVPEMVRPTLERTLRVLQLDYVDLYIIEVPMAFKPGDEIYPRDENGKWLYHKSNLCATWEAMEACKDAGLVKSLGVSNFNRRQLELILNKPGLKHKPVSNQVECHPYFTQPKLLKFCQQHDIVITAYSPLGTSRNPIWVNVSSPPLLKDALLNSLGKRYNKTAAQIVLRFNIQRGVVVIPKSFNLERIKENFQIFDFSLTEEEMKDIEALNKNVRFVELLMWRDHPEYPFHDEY

SLC25A16 (human) = molecular target: T4, SLC25A16 (human) (UniProt P16260)
T4 sequence: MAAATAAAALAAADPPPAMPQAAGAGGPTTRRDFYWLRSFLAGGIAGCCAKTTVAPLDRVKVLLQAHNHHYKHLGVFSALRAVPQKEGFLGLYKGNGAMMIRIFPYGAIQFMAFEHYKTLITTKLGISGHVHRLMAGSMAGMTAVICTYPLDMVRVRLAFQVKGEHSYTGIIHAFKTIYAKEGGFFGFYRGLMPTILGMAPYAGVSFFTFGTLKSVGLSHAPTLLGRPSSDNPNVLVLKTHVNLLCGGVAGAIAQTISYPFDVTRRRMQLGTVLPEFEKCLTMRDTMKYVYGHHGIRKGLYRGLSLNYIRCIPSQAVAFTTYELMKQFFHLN

CELF1 (human) = CELF1 (human) (UniProt Q92879)
CSNK1G1 (human) = CSNK1G1 (human) (UniProt Q9HCP0)

Measured: binding

linear ubiquitin chain assembly complex (LUBAC), purified as HIS-tagged HOIP with the subunit HOIL-1, biotin-labelled (from UniProt Q96EP0 1-1072; Q9BYM8 1-510)
binds: all assays above
